Data taken from PMC8997856.
Results are given in words; binding and its absence hold for the method and conditions named. Binding seen in cells or lysates may run through a third protein. Some results given as binding are weak or reduced against the parent protein; the word gives no strength.

T1: RARα (mouse, 4T1 cells) (mouse (endogenous in 4T1)) (UniProt P11416)
T1 sequence: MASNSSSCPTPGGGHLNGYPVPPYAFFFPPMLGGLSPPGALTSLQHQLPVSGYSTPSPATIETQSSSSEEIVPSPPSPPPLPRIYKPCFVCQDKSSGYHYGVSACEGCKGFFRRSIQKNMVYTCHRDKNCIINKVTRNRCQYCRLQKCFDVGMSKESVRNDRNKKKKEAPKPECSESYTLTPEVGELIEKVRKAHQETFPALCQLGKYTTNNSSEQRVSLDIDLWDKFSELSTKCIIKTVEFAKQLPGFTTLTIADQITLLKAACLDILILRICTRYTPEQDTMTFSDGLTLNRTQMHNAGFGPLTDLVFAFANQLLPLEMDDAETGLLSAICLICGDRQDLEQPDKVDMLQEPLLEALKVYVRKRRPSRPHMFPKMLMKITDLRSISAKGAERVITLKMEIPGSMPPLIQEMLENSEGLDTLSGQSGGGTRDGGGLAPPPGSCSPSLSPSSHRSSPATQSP

T2: RXRα (mouse, 4T1 cells) (mouse (endogenous in 4T1)) (UniProt P28700)
T2 sequence: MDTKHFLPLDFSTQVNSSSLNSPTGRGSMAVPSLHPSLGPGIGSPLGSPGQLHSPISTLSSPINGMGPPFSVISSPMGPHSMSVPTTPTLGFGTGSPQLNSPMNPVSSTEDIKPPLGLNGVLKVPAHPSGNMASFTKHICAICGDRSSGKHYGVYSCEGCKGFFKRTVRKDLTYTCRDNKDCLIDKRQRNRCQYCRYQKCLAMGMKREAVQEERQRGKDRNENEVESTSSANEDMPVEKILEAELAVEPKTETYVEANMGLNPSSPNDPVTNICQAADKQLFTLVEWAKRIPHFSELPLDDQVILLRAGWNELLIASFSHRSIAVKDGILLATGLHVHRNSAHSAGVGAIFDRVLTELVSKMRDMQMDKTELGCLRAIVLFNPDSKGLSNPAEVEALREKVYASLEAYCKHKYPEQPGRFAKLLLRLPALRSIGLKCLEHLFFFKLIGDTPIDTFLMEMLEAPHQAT

T3: Sin3A (human (endogenous in MDA-MB-231 and MCF-7)) (UniProt Q96ST3)
T3 sequence: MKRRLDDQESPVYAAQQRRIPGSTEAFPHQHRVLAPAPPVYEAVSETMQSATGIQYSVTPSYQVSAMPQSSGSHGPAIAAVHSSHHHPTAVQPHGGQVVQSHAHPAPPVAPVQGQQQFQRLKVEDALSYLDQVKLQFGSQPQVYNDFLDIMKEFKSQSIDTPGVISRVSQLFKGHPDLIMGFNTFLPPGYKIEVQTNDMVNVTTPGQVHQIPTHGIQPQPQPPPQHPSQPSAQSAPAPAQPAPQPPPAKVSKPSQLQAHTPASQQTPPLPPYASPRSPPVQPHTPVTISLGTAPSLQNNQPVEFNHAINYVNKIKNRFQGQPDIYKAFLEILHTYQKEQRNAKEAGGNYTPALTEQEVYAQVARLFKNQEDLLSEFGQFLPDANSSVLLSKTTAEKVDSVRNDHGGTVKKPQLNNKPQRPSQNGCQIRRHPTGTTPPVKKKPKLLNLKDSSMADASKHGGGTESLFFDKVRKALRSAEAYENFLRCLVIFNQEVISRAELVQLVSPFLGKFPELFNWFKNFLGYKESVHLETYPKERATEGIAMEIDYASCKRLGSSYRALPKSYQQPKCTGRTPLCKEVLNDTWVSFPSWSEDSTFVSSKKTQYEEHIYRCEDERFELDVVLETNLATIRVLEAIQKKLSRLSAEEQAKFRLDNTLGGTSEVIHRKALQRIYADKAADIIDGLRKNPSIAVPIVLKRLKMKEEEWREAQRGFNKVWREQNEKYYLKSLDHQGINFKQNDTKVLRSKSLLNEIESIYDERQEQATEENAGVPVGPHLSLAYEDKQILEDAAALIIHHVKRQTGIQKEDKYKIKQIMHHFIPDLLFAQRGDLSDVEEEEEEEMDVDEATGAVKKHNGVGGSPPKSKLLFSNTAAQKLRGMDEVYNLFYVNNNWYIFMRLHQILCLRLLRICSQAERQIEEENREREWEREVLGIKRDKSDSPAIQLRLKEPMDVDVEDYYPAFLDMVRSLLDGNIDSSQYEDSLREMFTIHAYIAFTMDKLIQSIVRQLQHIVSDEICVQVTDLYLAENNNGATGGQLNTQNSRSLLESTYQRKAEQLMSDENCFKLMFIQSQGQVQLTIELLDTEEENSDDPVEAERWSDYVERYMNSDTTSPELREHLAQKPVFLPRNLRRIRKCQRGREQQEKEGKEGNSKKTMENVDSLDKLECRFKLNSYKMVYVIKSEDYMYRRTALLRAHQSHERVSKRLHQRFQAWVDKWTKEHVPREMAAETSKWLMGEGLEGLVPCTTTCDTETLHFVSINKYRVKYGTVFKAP


What was measured:
[1] = biological target: T1, RARα (mouse, 4T1 cells) (mouse (endogenous in 4T1)); experiment: co-IP; lysates (Pierce IP reagent, 2000 µg) of MDA-MB-231, MCF-7 and 4T1 cells, wild type, or transfected with pCMV/MAD-SID, or treated with 5 µM MAD-Scr or MAD-SID peptide for 24 h; overnight with primary antibody, protein A/G beads, SDS-PAGE and Western blot; mouse IgG as negative control
[2] = biological target: T2, RXRα (mouse, 4T1 cells) (mouse (endogenous in 4T1)); experiment: as above
[3] = biological target: T3, Sin3A (human (endogenous in MDA-MB-231 and MCF-7)); experiment: co-IP; synthetic MAD-SID peptide (5 µM, 24 h) added to living MCF-7 and MDA-MB-231 cells before lysis; read-out is the loss of endogenous partners from the Sin3A co-precipitate; only the binder purified

binding [1] | binding [2] | binding [3] | Binder
binds | binds |  | Sin3A (mouse, 4T1 cells) (protein, UniProt Q60520 1-1274) MKRRLDDQESPVYAAQQRRIPGSTEAFSHQHRVLAPAPPVYEAVSETMQSATGIQYSVAPNYQVSAVPQSSGSHGPAIAAVHSSHHHPTAVQPHGGQVVQSHAHPAPPVAPVQGQQQFQRLKVEDALSYLDQVKLQFGSQPQVYNDFLDIMKEFKSQSIDTPGVISRVSQLFKGHPDLIMGFNTFLPPGYKIEVQTNDMVNVTTPGQVHQIPTHGIQPQPQPPPQHPSQPSSQSAPTPAQPAPQPTAAKVSKPSQLQAHTPASQQTPPLPPYASPRSPPVQPHTPVTISLGTAPSLQNNQPVEFNHAINYVNKIKNRFQGQPDIYKAFLEILHTYQKEQRNAKEAGGNYTPALTEQEVYAQVARLFKNQEDLLSEFGQFLPDANSSVLLSKTTAEKVDSVRNDHGGTVKKPQLNNKPQRPSQNGCQIRRHSGTGATPPVKKKPKLMSLKESSMADASKHGVGTESLFFDKVRKALRSAEAYENFLRCLVIFNQEVISRAELVQLVSPFLGKFPELFNWFKNFLGYKESVHLESFPKERATEGIAMEIDYASCKRLGSSYRALPKSYQQPKCTGRTPLCKEVLNDTWVSFPSWSEDSTFVSSKKTQYEEHIYRCEDERFELDVVLETNLATIRVLEAIQKKLSRLSAEEQAKFRLDNTLGGTSEVIHRKALQRIYADKAADIIDGLRKNPSIAVPIVLKRLKMKEEEWREAQRGFNKVWREQNEKYYLKSLDHQGINFKQNDTKVLRSKSLLNEIESIYDERQEQATEENAGVPVGPHLSLAYEDKQILEDAAALIIHHVKRQTGIQKEDKYKIKQIMHHFIPDLLFAQRGDLSDVEEEEEEEMDVDEATGAPKKHNGVGGSPPKSKLLFSNTAAQKLRGMDEVYNLFYVNNNWYIFMRLHQILCLRLLRICSQAERQIEEENREREWEREVLGIKRDKSDSPAIQLRLKEPMDVDVEDYYPAFLDMVRSLLDGNIDSSQYEDSLREMFTIHAYIAFTMDKLIQSIVRQLQHIVSDEVCVQVTDLYLAENNNGATGGQLNSQTSRSLLESAYQRKAEQLMSDENCFKLMFIQSQGQVQLTVELLDTEEENSDDPVEAERWSDYVERYMSSDTTSPELREHLAQKPVFLPRNLRRIRKCQRGREQQEKEGKEGNSKKTMENVESLDKLECRFKLNSYKMVYVIKSEDYMYRRTALLRAHQSHERVSKRLHQRFQAWVDKWTKEHVPREMAAETSKWLMGEGLEGLVPCTTTCDTETLHFVSINKYRVKYGTVFKAP
 |  | binds | YGRKKRRQGGGVRMNIQMLLEAADYLERRER [MAD1 (MXD1) SID peptide]
